Source: PubChem BioAssay AID504834 (National Center for Advancing Translational Sciences (NCATS), 2011)
The campaign covered roughly 320,000 compounds. About 22,000 (6.9%) were called active. This list was built around the results that the source calls inconclusive (neither active nor inactive); the mix of calls is not that of the screen. Calls follow the shape of the dose curve; as a rule, active = well fitted inhibition curve with a large enough effect; inconclusive = small, poorly fitted or top-dose-only effect, or another doubt; inactive = no such curve, though single readings can be large or run the other way. Potencies beside an inconclusive call are fits to weak or partial responses and may not hold up. Where a SMILES comes first, the peptide text is derived from it. [ ]: non-standard residue; d: D form. The star is where a group is joined. ξ: configuration not given here. Tos = Cc1ccc(S(=O)(=O)*)cc1; Inp = O=C(O)C1CCNCC1; ξP = O=C(O)C1CCCN1
% is scaled to controls: 0 for no effect and ±100 for the full control effect; potency is read from the fitted curve at half-maximal effect.

Test: Primary qHTS for delayed death inhibitors of the malarial parasite plastid, 96 hour incubation
Settings: P. falciparum luciferase reporter growth; series mostly up to 28.7 µM; activity change, negative = inhibition: at the top concentration
Method in brief: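 96 h incubation, 37 C, 5% CO2, of luciferase-reporter P. falciparum-infected RBCs (2% hematocrit, 0.05% parasitemia final) with test compounds; endpoint luminescence.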
With `CNC(=S)N(CCc1c(C)[nH]c2ccc(OC)cc12)Cc1ccco1` the Potency was inconclusive: 13.1 µM [inhibitor, single point]. With `COc1ccc2cc1Oc1ccc(cc1)C[C@H]1c3cc(c(OC)cc3CCN1C)Oc1c(O)c(OC)cc3c1[C@H](C2)N(C)CC3` the Potency was active: 1.85 µM. For `O=c1c2cc(Cl)ccc2[nH]c(=S)n1Cc1ccccn1`, the Potency was inconclusive: 16.5 µM [inhibitor, single point]. With `CC(C)NC(=O)COc1coc(CN2CCN(c3ccccc3F)CC2)cc1=O` the Potency was inconclusive: 5.86 µM [inhibitor, partial curve, poor fit]. In the case of `COc1cc(-c2nnc(COc3ccc4ccccc4c3)o2)cc(OC)c1OC`, the Potency is reported as inconclusive: 8.28 µM [inhibitor, single point]. For `O=C(Nc1ccn(Cc2ccccc2F)n1)c1ccc(COc2cccc(Br)c2)cc1`, the Potency was inconclusive: 13.1 µM [inhibitor, single point]. In the case of `O=C1CN(C(=O)CSc2nnc3ccccn23)c2ccccc2N1`, the Potency is reported as inconclusive: 11.7 µM [inhibitor, single point]. In the case of `CC(C)(c1ccccc1)c1ccc(OCCN2CCOCC2)cc1`, the Potency is reported as inconclusive: 3.7 µM [inhibitor, single point]. In the case of `O=C(COc1cc(F)ccc1[N+](=O)[O-])NCCCc1ccccc1`, the “activity change, negative = inhibition” value is reported as inactive: -3.29%. For `CCCCCn1c(=O)c(C(=O)Nc2cccc(C)n2)c(O)c2ccccc21`, the Potency was inconclusive: 5.22 µM [inhibitor, partial curve, poor fit]. For `CC(C)C(=O)C1=Cc2cc([N+](=O)[O-])ccc2OC1N1CCOCC1` (configuration not stated), the “activity change, negative = inhibition” value was inactive: -27.5%. With `Fc1ccc(-c2csc(NC(=S)Nc3ccccc3)n2)cc1` the Potency was inconclusive: 9.28 µM [inhibitor, partial curve]. In the case of `CCC(=NCc1cccnc1)c1c(O)n(-c2ccc(Cl)cc2)c(=O)[nH]c1=O`, the Potency is reported as inconclusive: 13.1 µM [inhibitor, single point]. With `COC(=O)c1ccc(/C=N/NC(=O)c2ccc3nc[nH]c3c2)cc1` the “activity change, negative = inhibition” value was inactive: 5.08%. In the case of `Cn1ncc(C#N)c1/N=C/N(Cc1ccccc1)Cc1ccccc1`, the Potency is reported as inconclusive: 0.329 µM [inhibitor, partial curve, poor fit]. With `COn1c(=O)c(=O)n(O)c2ccccc21` the Potency was inconclusive: 16.5 µM [inhibitor, single point]. For `Cc1ccc(S(=O)(=O)N2CCC(C(=O)N3CCCC3C(=O)N[C@@H](CC(C)C)C(=O)NCC(N)=O)CC2)cc1` (stereo partly drawn) ({Tos-Inp}-[ξP]-Leu-Gly-NH2), the Potency was active: 6.57 µM. With `Cc1ccc(NC(=O)C(C)Sc2nnc(C)n2CC2CCCO2)cc1` (configuration not stated) the “activity change, negative = inhibition” value was inactive: -14.1%. With `Cn1nc(-c2ccccc2)cc1NC(=O)C1CCCCC1` the “activity change, negative = inhibition” value was inactive: 69.8%. With `COc1ccc(C(=O)N2CCN(c3ccccc3Cl)CC2)cc1S(=O)(=O)NC1CC1` the Potency was inconclusive: 18.5 µM [inhibitor, single point]. In the case of `CCN(CC(=O)Nc1ccc(NC(C)=O)cc1)C(=O)CSC(c1ccccc1)c1ccccc1`, the “activity change, negative = inhibition” value is reported as inactive: -21.2%. For `CN1CCN(S(=O)(=O)c2ccc(Cl)s2)CC1`, the “activity change, negative = inhibition” value was inactive: -5.54%. In the case of `Cc1cccc(NC(=O)N(C)Cc2cccs2)c1`, the “activity change, negative = inhibition” value is reported as inactive: 65.4%. In the case of `CSc1ccccc1NC(=O)Cc1ccccc1[N+](=O)[O-]`, the “activity change, negative = inhibition” value is reported as inactive: 233%. In the case of `Cc1onc(-c2c(Cl)cccc2Cl)c1NC(=O)NNc1ccccn1`, the “activity change, negative = inhibition” value is reported as inactive: 1.68%. For `CN(C(=O)COC(=O)c1ccccc1C(=O)N1CCN(c2ccccc2)CC1)c1ccccc1`, the Potency was inconclusive: 2.94 µM [inhibitor, single point]. For `CC(C)(C)C(=O)CN1C(=O)NC(c2ccccc2)(c2ccccc2)C1=O`, the Potency was inconclusive: 9.28 µM [inhibitor, partial curve, poor fit]. In the case of `O=c1c2ccccc2n2c(-c3ccc(C(F)(F)F)cc3)nnc2n1Cc1ccccc1`, the Potency is reported as inconclusive: 8.28 µM [inhibitor, partial curve]. In the case of `CCCCc1nc(NCCO)c(C#N)c2c1CCCC2`, the “activity change, negative = inhibition” value is reported as inactive: 28.7%. For `N/C(=N\OC(=O)c1ccc2ccccc2c1)c1cccc([N+](=O)[O-])c1`, the Potency was inconclusive: 11.7 µM [inhibitor, single point]. In the case of `Cc1nn2c(-c3ccc(Cl)cc3)nnc2s1`, the Potency is reported as inconclusive: 18.5 µM [inhibitor, single point]. In the case of `CC(C)c1nc2ccc(NC(=O)C34CC5CC(CC(C5)C3)C4)cc2[nH]1`, the Potency is reported as inconclusive: 11.7 µM [inhibitor, single point]. With `Cc1cc2oc(=O)cc(CN3CCN(Cc4ccccc4)CC3)c2cc1C` the Potency was inconclusive: 10.4 µM [inhibitor, single point]. In the case of `O=S(=O)(Nc1nc2ccccc2nc1-[n+]1cccc(N=C([O-])c2ccccc2Cl)c1)c1ccccc1`, the Potency is reported as active: 8.28 µM. For `CCN(Cc1ccccc1)C(=O)C1CCC(CNc2c(N3CCOCC3)c(=O)c2=O)CC1` (configuration not stated), the Potency was inconclusive: 18.5 µM [inhibitor, single point]. In the case of `COc1ccc(NC(=O)c2nnn(CC(=O)Nc3ccc4c(c3)OCO4)c2N)cc1OC`, the Potency is reported as inconclusive: 18.5 µM [inhibitor, single point]. For `O=C(CNC(=O)C(c1ccccc1)c1ccccc1)N/N=C/c1ccc(O)c([N+](=O)[O-])c1`, the Potency was inconclusive: 8.28 µM [inhibitor, partial curve, poor fit]. In the case of `CCOc1cccc(/C=N/NC(=O)c2cc(-c3cccn3C)n[nH]2)c1O`, the Potency is reported as inconclusive: 10.4 µM [inhibitor, partial curve]. In the case of `S=C1NC[C@H](CC2CCCCC2)N1CCCCC1CCCCC1`, the Potency is reported as inconclusive: 3.29 µM [inhibitor, partial curve]. For `COc1ccc(N2CCN(CC(=O)Nc3nnc(-c4ccccc4)s3)CC2)cc1`, the Potency was inconclusive: 18.5 µM [inhibitor, single point]. In the case of `CCOC(=O)/C=c1\s/c(=C\c2ccc(-c3ccccc3)cc2)c(=O)n1CC(=O)NCc1ccc2c(c1)OCO2`, the Potency is reported as inconclusive: 2.94 µM [inhibitor, single point]. In the case of `Cn1c(NCC(O)CO)nc2c1c(=O)n(Cc1ccc(Cl)c(Cl)c1)c(=O)n2C` (configuration not stated), the Potency is reported as inconclusive: 0.329 µM [inhibitor, full curve, poor fit].
